# Laboratory results: the supplement of paper PMC12823440, “Inhibitors supercharge kinase turnover through native proteolytic circuits” (Nature, 2025)
# Protein sequences, listed by entry. Tags and fused reporters are not part of them. Lines headed by an entry give the natural chain unless they say otherwise; changes in a name come on top.
# UniProt Q01974, whole entry: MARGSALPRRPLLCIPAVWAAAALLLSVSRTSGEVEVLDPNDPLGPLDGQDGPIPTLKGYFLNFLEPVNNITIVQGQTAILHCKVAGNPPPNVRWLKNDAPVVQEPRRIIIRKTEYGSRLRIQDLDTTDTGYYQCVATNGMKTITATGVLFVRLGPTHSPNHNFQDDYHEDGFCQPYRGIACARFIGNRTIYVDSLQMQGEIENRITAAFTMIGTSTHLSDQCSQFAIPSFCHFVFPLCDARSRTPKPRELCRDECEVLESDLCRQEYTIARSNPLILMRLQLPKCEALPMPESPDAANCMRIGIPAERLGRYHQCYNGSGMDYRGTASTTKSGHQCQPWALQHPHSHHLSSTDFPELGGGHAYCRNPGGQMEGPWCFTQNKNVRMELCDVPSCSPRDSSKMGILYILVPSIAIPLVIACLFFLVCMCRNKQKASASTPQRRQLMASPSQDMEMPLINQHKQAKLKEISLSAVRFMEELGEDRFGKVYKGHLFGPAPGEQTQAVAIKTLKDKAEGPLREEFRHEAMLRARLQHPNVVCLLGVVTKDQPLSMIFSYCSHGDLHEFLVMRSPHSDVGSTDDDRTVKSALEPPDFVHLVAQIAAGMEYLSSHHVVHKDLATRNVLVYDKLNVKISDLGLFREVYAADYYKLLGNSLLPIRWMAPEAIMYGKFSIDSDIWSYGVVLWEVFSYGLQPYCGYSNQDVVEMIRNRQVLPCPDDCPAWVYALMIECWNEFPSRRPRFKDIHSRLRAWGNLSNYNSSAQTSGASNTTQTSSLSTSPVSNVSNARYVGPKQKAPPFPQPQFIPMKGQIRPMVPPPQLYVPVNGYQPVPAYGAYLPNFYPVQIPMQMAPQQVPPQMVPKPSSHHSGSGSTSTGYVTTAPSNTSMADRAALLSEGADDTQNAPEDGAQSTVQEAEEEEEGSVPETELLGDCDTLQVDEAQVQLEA
# UniProt Q15418, whole entry: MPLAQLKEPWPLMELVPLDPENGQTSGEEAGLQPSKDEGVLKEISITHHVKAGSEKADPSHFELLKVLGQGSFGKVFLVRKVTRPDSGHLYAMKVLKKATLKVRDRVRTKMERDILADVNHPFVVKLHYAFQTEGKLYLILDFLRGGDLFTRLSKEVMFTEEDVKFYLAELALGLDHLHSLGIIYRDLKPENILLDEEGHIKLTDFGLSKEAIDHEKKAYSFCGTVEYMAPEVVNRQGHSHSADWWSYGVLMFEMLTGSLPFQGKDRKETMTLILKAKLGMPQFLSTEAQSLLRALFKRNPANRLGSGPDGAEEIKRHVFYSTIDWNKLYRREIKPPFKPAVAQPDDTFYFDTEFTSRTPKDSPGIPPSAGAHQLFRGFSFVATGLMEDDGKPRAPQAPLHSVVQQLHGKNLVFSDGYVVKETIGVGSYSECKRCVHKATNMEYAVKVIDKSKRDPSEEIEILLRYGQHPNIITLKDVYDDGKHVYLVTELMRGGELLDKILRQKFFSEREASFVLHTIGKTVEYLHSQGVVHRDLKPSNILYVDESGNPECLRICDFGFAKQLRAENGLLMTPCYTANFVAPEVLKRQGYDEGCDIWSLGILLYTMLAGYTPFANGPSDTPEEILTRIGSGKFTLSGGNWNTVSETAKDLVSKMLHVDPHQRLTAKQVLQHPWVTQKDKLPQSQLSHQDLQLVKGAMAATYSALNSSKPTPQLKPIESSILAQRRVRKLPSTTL
# UniProt Q9NYA1, whole entry: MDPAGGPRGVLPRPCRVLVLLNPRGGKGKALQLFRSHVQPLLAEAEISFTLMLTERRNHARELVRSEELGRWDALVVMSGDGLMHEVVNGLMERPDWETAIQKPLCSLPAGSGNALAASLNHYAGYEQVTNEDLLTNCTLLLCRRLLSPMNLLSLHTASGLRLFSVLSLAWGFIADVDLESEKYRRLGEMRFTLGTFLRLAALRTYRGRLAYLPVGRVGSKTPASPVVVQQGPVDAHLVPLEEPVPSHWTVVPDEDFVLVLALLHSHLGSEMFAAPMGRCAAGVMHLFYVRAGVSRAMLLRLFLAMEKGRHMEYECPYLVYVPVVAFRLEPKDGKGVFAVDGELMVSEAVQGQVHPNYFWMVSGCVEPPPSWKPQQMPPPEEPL
# UniProt Q9Y6E0: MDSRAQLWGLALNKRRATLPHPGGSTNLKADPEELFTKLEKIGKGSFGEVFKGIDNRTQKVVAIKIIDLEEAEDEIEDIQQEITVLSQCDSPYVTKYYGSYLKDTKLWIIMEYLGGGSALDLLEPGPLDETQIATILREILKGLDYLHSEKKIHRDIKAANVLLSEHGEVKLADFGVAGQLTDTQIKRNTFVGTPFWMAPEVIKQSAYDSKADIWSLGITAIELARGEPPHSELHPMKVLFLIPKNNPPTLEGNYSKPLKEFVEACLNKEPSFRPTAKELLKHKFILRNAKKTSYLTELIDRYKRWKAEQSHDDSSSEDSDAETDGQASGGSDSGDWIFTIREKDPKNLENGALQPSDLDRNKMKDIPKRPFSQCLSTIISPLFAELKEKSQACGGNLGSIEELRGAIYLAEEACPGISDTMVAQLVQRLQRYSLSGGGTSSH
# UniProt Q15208: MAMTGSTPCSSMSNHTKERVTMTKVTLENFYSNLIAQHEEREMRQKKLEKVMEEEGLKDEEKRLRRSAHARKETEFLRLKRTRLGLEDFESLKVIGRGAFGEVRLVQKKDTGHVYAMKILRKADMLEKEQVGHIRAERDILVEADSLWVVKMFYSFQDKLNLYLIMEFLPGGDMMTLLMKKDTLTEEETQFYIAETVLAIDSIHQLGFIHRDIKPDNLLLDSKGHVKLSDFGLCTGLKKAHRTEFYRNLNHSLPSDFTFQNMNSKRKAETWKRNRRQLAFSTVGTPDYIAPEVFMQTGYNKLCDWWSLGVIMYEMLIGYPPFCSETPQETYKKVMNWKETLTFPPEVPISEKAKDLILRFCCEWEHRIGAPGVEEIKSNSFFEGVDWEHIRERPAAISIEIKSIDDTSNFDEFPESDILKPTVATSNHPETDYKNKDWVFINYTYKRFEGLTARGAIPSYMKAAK
# UniProt P42680: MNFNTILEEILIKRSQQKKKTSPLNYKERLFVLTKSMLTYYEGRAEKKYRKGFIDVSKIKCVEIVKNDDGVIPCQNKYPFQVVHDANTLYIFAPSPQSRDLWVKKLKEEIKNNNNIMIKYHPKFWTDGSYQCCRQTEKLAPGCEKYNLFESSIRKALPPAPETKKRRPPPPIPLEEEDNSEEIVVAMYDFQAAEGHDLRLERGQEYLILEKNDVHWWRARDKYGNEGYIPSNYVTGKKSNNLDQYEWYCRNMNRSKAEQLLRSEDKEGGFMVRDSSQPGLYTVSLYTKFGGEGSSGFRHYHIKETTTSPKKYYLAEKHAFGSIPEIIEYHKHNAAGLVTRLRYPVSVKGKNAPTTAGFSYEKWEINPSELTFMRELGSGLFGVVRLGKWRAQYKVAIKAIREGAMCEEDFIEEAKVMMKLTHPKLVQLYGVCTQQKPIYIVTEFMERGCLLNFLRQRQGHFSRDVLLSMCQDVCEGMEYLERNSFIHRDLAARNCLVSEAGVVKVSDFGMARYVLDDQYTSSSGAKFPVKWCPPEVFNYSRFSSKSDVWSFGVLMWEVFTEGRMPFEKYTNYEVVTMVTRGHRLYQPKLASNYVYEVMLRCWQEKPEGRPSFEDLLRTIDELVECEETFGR
# UniProt P29597: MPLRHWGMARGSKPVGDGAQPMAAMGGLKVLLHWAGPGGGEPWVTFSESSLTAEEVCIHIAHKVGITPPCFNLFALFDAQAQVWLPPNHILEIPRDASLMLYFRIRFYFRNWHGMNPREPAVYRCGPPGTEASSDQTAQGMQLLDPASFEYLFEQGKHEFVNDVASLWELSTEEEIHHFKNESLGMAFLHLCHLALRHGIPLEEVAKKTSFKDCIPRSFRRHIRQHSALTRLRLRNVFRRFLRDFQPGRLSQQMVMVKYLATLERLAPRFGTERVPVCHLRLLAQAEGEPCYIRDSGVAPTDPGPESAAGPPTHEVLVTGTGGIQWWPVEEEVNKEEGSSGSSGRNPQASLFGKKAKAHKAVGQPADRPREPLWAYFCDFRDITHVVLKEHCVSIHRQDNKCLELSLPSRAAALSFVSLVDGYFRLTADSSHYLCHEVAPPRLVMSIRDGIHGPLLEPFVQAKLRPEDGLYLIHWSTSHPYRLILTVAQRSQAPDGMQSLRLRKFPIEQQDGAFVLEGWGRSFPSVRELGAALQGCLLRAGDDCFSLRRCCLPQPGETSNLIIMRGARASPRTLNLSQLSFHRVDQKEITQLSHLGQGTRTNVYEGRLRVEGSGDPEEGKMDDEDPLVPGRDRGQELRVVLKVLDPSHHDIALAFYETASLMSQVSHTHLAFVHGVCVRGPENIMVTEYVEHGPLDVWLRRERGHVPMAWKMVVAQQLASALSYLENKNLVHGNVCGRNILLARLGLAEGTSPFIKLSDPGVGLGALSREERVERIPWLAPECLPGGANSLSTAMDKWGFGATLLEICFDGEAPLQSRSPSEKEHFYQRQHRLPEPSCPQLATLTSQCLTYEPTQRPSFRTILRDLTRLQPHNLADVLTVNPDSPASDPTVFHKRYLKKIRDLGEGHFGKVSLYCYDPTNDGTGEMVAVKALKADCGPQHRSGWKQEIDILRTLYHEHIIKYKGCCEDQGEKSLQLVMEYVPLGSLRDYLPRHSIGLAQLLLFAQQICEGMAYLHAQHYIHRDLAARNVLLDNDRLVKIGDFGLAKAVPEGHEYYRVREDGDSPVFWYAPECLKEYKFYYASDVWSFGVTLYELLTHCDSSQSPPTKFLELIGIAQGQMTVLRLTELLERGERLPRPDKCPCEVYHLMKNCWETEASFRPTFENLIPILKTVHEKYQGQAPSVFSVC
# UniProt Q6PHR2: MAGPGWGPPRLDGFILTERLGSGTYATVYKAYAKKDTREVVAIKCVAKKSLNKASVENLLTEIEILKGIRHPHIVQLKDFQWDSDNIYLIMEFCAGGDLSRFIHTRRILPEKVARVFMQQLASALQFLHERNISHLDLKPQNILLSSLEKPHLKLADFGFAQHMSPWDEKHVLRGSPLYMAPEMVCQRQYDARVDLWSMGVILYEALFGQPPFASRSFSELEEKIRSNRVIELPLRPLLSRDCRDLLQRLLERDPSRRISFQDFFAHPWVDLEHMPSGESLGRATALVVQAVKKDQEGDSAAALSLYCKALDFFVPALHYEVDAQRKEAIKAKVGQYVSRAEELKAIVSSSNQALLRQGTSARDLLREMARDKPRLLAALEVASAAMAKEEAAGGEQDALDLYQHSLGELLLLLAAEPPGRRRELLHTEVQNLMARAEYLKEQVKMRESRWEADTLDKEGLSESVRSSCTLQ
# The list shows a part of the results. Hit calls seldom repeat between salt and free forms of one compound.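 Kinases were expressed as nanoluciferase fusions in K562 cells and luminescence was read every 4 h between 2 and 18 h as percent of control, DMSO set to 100% and a positive control to 0%. A time point counts as decreased when the signal drops significantly (2 sigma). The hit call is the authors' own, does not follow from the count of time points alone, and its rule is not shown.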
# What was measured:
# Assay in all cases: number of time points (of 5) at which kinase-Nluc abundance scored as decreased, DMSO-normalised (count); higher = more persistent destabilization
# Conditions in all cases: K562; 2-18 h
# ROR2 = ROR2 (UniProt Q01974)
# RPS6KA1 = RPS6KA1 (UniProt Q15418)
# SPHK1 = SPHK1 (UniProt Q9NYA1)
# SRC = SRC (UniProt P12931)
# STK24 = STK24 (UniProt Q9Y6E0)
# STK38 = STK38 (UniProt Q15208)
# SYK = SYK (UniProt P43405)
# TEC = TEC (UniProt P42680)
# TYK2 = TYK2 (UniProt P29597)
# ULK3 = ULK3 (UniProt Q6PHR2)
SMILES,number of time points (ROR2),number of time points (RPS6KA1),number of time points (SPHK1),number of time points (SRC),number of time points (STK24),number of time points (STK38),number of time points (SYK),number of time points (TEC),number of time points (TYK2),number of time points (ULK3)
COC1(c2sc3c(N4CCOCC4)nc(-c4cnc(N)nc4)nc3c2C)COC1 (2.5 µM),0,0,0,0,0,0,0,0,0,0
O=C1NC(=O)C(=Cc2ccc(-c3ccc(F)cc3)o2)S1 (stereo in doubt) (10 µM),0,0,0,0,0,0,0,0,0,0
C#CCN(C)C(=O)CCNc1nc(N2CCN(C(=O)C=C)CC2)c2cc(Cl)c(-c3c(O)cccc3F)c(F)c2n1 [ARS-1323-alkyne] (2.5 µM),0,0,0,0,0,0,0,0,0,0
CCn1c(=O)c(-c2ccc(-c3cncc(C)n3)cc2Cl)cc2cnc(NCCC3CCN(C)CC3)nc21 (10 µM),0,0,0,0,0,0,0,0,0,0
Cc1csc(-c2nnc(Nc3ccc(Oc4ncccc4-c4ccnc(N)n4)cc3)c3ccccc23)c1 (2.5 µM),0,0,0,0,0,0,0,0,0,0
CC(=NNC(=O)c1ccc(C)c(Br)c1)c1ccc(O)cc1O [mTOR inhibitor-1] (2.5 µM),0,0,0,0,0,0,0,1,1,0
CC(C)=CC(=O)CCC(=O)N1CCN(Cc2cc3nc(-c4cccc5[nH]ncc45)nc(N4CCOCC4)c3s2)CC1 (10 µM),0,0,5,0,0,0,0,0,0,0
CC[C@@]1(c2ccccc2)C2=C(CC(C)(C)CC2=O)Nc2[nH]ncc21 (10 µM),0,0,0,0,0,0,0,0,0,0
Cc1c(CN2CCN(C(=O)[C@H](C)O)CC2)sc2c(N3CCOCC3)nc(-c3cnc(N)nc3)nc12 [Apitolisib] (10 µM),0,0,0,0,0,0,0,0,4,1
O=c1oc2cc(O)ccc2c2ccccc12 [Urolithin B] (10 µM),0,0,0,0,0,0,0,0,0,0
CC(=O)c1c(C)c2cnc(Nc3ccc(N4CCN(CCCCNC(=O)COc5cccc6c5C(=O)N(C5CCC(=O)NC5=O)C6=O)CC4)cn3)nc2n(C2CCCC2)c1=O (stereo not given) (10 µM),0,0,0,0,0,0,0,0,0,0
CC1=C2C(=O)O[C@@H](c3ccoc3)[C@]2(C)CCC1 [Fraxinellone] (10 µM),0,0,0,0,0,0,0,0,0,0
Cc1ccc(S(=O)(=O)Nc2ccccc2C=Nc2ccccc2NS(=O)(=O)c2ccc(C)cc2)cc1 (10 µM),0,0,0,0,0,0,0,0,0,0
C=CC(=O)Nc1cccc(C)c1Nc1ncc2cc(-c3c(Cl)c(OC)cc(OC)c3Cl)ccc2n1 (2.5 µM),0,0,0,0,0,0,0,0,0,2
Fc1ccc(-c2nc(-c3c(F)cccc3F)[nH]c2-c2ccncc2)cc1 (10 µM),0,0,0,0,0,0,0,0,0,0
O=C1NC(=O)/C(=C/c2ccc3c(c2)OC(F)(F)O3)S1 (10 µM),0,0,0,0,0,0,0,0,0,0
N#CC(c1ccnc(NCCc2cccnc2)n1)c1nc2ccccc2s1 (stereo not given) (10 µM),0,0,0,0,0,0,0,0,0,0
C[C@@H]1O[C@@H](O[C@H]2[C@H](Oc3cc(O)c4c(=O)cc(-c5ccc(O)cc5)oc4c3)O[C@H](CO)[C@@H](O)[C@@H]2O)[C@H](O)[C@H](O)[C@H]1O [Rhoifolin] (10 µM),0,0,0,0,0,0,0,0,0,0
CC1CN(C(=O)Nc2ccc(Cl)c(Cl)c2)C(=Nc2ccc(F)cc2)S1 (stereo not given) (10 µM),0,0,0,0,0,0,0,0,0,0
c1cn2cc(-c3ccc4cn[nH]c4c3)nc(Nc3ccc(N4CCOCC4)cc3)c2n1 [Entospletinib] (10 µM),0,0,0,0,0,0,0,0,0,0
C=C(CCC=C(C)C)[C@H]1CC[C@]2(C)[C@@H]1[C@H](O)C[C@@H]1[C@@]3(C)CC[C@H](O[C@@H]4O[C@H](CO)[C@@H](O)[C@H](O)[C@H]4O[C@@H]4O[C@H](CO)[C@@H](O)[C@H](O)[C@H]4O)C(C)(C)[C@@H]3CC[C@]12C [Ginsenoside Rk1] (10 µM),0,0,0,0,0,0,0,0,0,0
OC(COc1ccc(C(F)(F)F)cc1)CN(Cc1ccccc1)Cc1ccccc1 (stereo not given) (2.5 µM),0,0,0,0,0,0,0,0,0,0
C=C(C)C(=O)Nc1cccc(-c2ncnc3[nH]cc(C(=O)OCC)c23)c1 (10 µM),0,0,0,0,0,0,0,0,0,0
COc1cccc(-n2c(=O)[nH]c3cc(Cl)n(-c4ccc(-c5cccc(OC)c5O)cc4)c3c2=O)c1 (2.5 µM),0,0,0,0,0,0,0,0,0,0

# Grouped by structure: the compounds so far containing a thiophene ring, fused or not.
SMILES,number of time points (ROR2),number of time points (RPS6KA1),number of time points (SPHK1),number of time points (SRC),number of time points (STK24),number of time points (STK38),number of time points (SYK),number of time points (TEC),number of time points (TYK2),number of time points (ULK3)
COC1(c2sc3c(N4CCOCC4)nc(-c4cnc(N)nc4)nc3c2C)COC1 (2.5 µM),0,0,0,0,0,0,0,0,0,0
Cc1csc(-c2nnc(Nc3ccc(Oc4ncccc4-c4ccnc(N)n4)cc3)c3ccccc23)c1 (2.5 µM),0,0,0,0,0,0,0,0,0,0
CC(C)=CC(=O)CCC(=O)N1CCN(Cc2cc3nc(-c4cccc5[nH]ncc45)nc(N4CCOCC4)c3s2)CC1 (10 µM),0,0,5,0,0,0,0,0,0,0
Cc1c(CN2CCN(C(=O)[C@H](C)O)CC2)sc2c(N3CCOCC3)nc(-c3cnc(N)nc3)nc12 [Apitolisib] (10 µM),0,0,0,0,0,0,0,0,4,1
